No constants are given. Whether binding was seen depends on the method and setting. Binding seen in cells or lysates may run through a third protein. Some entries that bind do so weakly or less than the wild type. Sequences can lack the tags named with a protein. Values belong to the binder of their own block, whether it stands above or below them.
Legend:
[1] = biological target: T1, 6×CASB_(135-150)-HA (human); assay: co-IP; RAW264.7 cells overexpressing 6×CASB_(135-150)-HA; anti-HA magnetic beads; IP lysis buffer (Tris pH 7.5, 150 mM NaCl, 0.5% NP-40); 6 washes with PBS; blot for FHL2
T1 sequence: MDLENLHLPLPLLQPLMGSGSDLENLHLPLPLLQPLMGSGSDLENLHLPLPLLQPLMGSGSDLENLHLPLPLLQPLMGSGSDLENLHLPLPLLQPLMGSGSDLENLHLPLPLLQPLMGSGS

FHL2-3×Flag [2] = biological target: T2, FHL2-3×Flag (UniProt Q14192); assay: co-IP; FHL2-3×Flag co-expressed with 6×CASB_(135-150)-HA or 6×CASB_(135-150)(Mut)-HA in RAW264.7 cells; anti-Flag magnetic beads; IP lysis buffer (Tris pH 7.5, 150 mM NaCl, 0.5% NP-40); blot for HA
T2 sequence: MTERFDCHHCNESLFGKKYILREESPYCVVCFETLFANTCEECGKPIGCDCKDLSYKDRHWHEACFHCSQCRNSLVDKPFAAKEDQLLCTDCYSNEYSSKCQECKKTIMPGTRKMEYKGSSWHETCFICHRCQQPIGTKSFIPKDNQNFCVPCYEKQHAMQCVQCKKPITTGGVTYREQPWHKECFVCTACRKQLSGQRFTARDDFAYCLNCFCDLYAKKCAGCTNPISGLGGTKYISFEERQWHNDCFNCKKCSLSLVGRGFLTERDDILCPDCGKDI

FHL2-3×Flag [3] = biological target: T2, FHL2-3×Flag; assay: co-IP; RAW264.7 cells overexpressing FHL2-3×Flag for 48 hours; anti-Flag magnetic beads; blot for TRAF6
FHL2-3×Flag [4] = biological target: T2, FHL2-3×Flag; assay: co-IP; competition: FHL2-3×Flag with rising levels of 6×CASB_(135-150)-HA (or with the Mut construct) co-expressed; anti-Flag magnetic beads; blot for TRAF6; cells RAW264.7 by the legend, 293T by the text

- binding [1]: binds
B1: FHL2 (endogenous, RAW264.7) (protein, UniProt O70433 1-279)
chain: MTERFDCHHCNESLYGKKYILKEENPHCVACFEELYANTCEECGTPIGCDCKDLSYKDRHWHEGCFHCSRCGSSLVDKPFAAKEEQLLCTDCYSNEYSSKCQECKKTIMPGTRKMEYKGSSWHETCFTCQRCQQPIGTKSFIPKENQNFCVPCYEKQYALQCVQCKKPITTGGVTYREQPWHKECFVCTACKKQLSGQRFTARDEFPYCLTCFCDLYAKKCAGCTNPISGLGGTKYISFEERQWHNDCFNCKKCSLSLVGRGFLTERDDILCPDCGKDI

- binding (FHL2-3×Flag [2]): binds
B2: 6×CASB_(135-150)-HA (protein)
chain: T1 sequence

- binding (FHL2-3×Flag [3]): binds
- binding (FHL2-3×Flag [4]): binds
B3: TNF receptor-associated factor 6 (TRAF6) (protein, UniProt P70196 1-530)
chain: MSLLNCENSCGSSQSSSDCCAAMAASCSAAVKDDSVSGSASTGNLSSSFMEEIQGYDVEFDPPLESKYECPICLMALREAVQTPCGHRFCKACIIKSIRDAGHKCPVDNEILLENQLFPDNFAKREILSLTVKCPNKGCLQKMELRHLEDHQVHCEFALVNCPQCQRPFQKCQVNTHIIEDCPRRQVSCVNCAVSMAYEEKEIHDQSCPLANIICEYCGTILIREQMPNHYDLDCPTAPIPCTFSVFGCHEKMQRNHLARHLQENTQLHMRLLAQAVHNVNLALRPCDAASPSRGCRPEDPNYEETIKQLESRLVRQDHQIRELTAKMETQSMYVGELKRTIRTLEDKVAEMEAQQCNGIYIWKIGNFGMHLKSQEEERPVVIHSPGFYTGRPGYKLCMRLHLQLPTAQRCANYISLFVHTMQGEYDSHLPWPFQGTIRLTILDQSEALIRQNHEEVMDAKPELLAFQRPTIPRNPKGFGYVTFMHLEALRQGTFIKDDTLLVRCEVSTRFDMGGLRKEGFQPRSTDAGV

From publication PMC11652890
